According to PubChem BioAssay AID540256 (National Center for Advancing Translational Sciences (NCATS), 2011):
Out of some 300,000 compounds screened, about 3,700 (1.2%) were called active. The shares of active, inactive and inconclusive entries below differ from those in the screen. The call rests on the fitted dose curve; tested in HEK293 cells. Potencies of inconclusive entries are doubtful fits and often do not repeat.

Assay: qHTS for Inhibitors of binding or entry into cells for Lassa Virus; further: nearly all actives have a fitted effect of over 50% in size
Details: Lassa virus pseudotype entry inhibition, cell reporter; activity change, negative = inhibition: at 37.9 µM (top of the series) unless noted
On the % scale 0 is the no-effect control and ±100 the full control effect; potency means the concentration at half of the fitted maximal effect.

SMILES	Potency	activity change, negative = inhibition
O=S(=O)(c1ccc(-c2cn3ccccc3n2)cc1)N1CCOCC1	inconclusive: 29.1 µM [activator, single point]	–
CCc1nc(Nc2ccc3nccnc3c2)c2oc3ccccc3c2n1	inconclusive: 0.651 µM [inhibitor, partial curve, poor fit]	–
Cc1cc(C)nc(SCC(=O)Nc2ncc3c(n2)CC(C)(C)CC3=O)n1	–	inactive: -7.77%
COc1ccccc1N1CCN(C(=O)CSc2nc3ccccc3nc2N2CCC(C)CC2)CC1	inconclusive: 25.1 µM [inhibitor, single point]	–
CCCn1cnc2c(Sc3c([N+](=O)[O-])ncn3C)nc(N)nc21	inconclusive: 0.316 µM [inhibitor, full curve, poor fit]	–
CC(C)CC(=O)NC(=S)Nc1ccccc1C(F)(F)F	–	inactive: -7.73%
Cc1cc(C)cc(OCCCn2c(CCNC(=O)C3CCCCC3)nc3ccccc32)c1	inconclusive: 35.5 µM [inhibitor, single point]	–
CCCCC(CC)CNC(=O)C1CCC(CNS(=O)(=O)c2cccc3nsnc23)CC1 (stereo not drawn)	–	inactive: 1.69% [at 46.1 µM]
CCN(CC)C(=O)c1ccc(NC(=S)NC(=O)CCc2ccccc2)cc1	inconclusive: 11.2 µM [inhibitor, partial curve, poor fit]	–
CCCc1ccc(S(=O)(=O)N2CCC(Oc3ccc(-n4cnnn4)cc3)CC2)cc1	inconclusive: 2.82 µM [activator, partial curve, poor fit]	–
COC(=O)Cc1ccc(OC(=O)CCS(=O)(=O)c2ccc(Cl)cc2)cc1	–	inactive: 0.0036%
COc1ccc2o/c(=N/NC(=O)c3cccs3)c(C(N)=O)cc2c1	–	inactive: -13.8% [at 46.1 µM]
O=C(NCCc1ccccc1)C(=O)N/N=C/c1ccc2c(c1)OCO2	–	inactive: -21%
CCC(=O)Nc1ccc(-c2nnc3c4ccccc4c(C)nn23)cc1	inconclusive: 3.16 µM [activator, single point]	–
O=C(NCc1ccccc1)c1ccc2c(c1)CCN2S(=O)(=O)c1ccccc1	inconclusive: 11.2 µM [inhibitor, partial curve, poor fit]	–
O=S(=O)(NCCc1ccc(F)cc1)c1ccccc1Br	–	inactive: -9.85% [at 46.1 µM]
COc1ccccc1C1CC(c2ccc(Br)cc2)=NN1C(=O)c1cccnc1 (stereo not drawn)	inconclusive: 11.2 µM [inhibitor, partial curve]	–
O=C(COc1ccc(S(=O)(=O)N2CCOCC2)cc1)Nc1ccccc1Cl	inconclusive: 29.1 µM [inhibitor, single point]	–
COc1cccc(Cn2cccc(NC(=O)Nc3ccc(C#N)cc3)c2=O)c1	inconclusive: 20.6 µM [inhibitor, partial curve]	–
COC(=O)c1c(NS(C)(=O)=O)sc2c1CCCC2	–	inactive: 6.72%
CCOC(=O)N1CCN(C(=O)CN(C2CCCCC2)S(=O)(=O)c2ccc(C)cc2)CC1	inconclusive: 11.2 µM [inhibitor, partial curve, poor fit]	–
C(=N\N1CCN(c2ccccn2)CC1)/c1ccco1	–	inactive: -7.5% [at 46.1 µM]
Cc1ccc2cc3cc(C(=O)NCc4ccc5c(c4)OCO5)oc3nc2c1	inconclusive: 1.41 µM [inhibitor, full curve]	–

SMILES	Potency	activity change, negative = inhibition
CC(C)c1ccc(S(=O)(=O)Nc2ccc(-n3cnnn3)cc2)cc1	inconclusive: 35.5 µM [inhibitor, single point]	–
CC(C)Oc1cccc(C(=O)C2CCCN(Cc3ccon3)C2)c1 (stereo not drawn)	–	inactive: -6.43% [at 46.1 µM]
COc1ccc(-c2cc(C(=O)NCc3ccc(F)cc3)c3c(-c4ccc(F)cc4)[nH]nc3n2)cc1OC	inconclusive: 1 µM [inhibitor, full curve, poor fit]	–
CCOc1ccc(Br)cc1S(=O)(=O)NC1=NCCCCC1	–	inactive: 13.9%
CC(C)[C@H](NC(=O)OCc1ccccc1)C(=O)OCC(=O)N1CCN(c2ccccc2)CC1	inconclusive: 14.1 µM [inhibitor, single point]	–
O=C(CSc1nnc2scc(-c3ccccc3)n12)NCc1ccc2c(c1)OCO2	inconclusive: 14.6 µM [activator, partial curve, poor fit]	–
COc1cc(S(=O)(=O)N2CCN(Cc3ccccc3)CC2)ccc1Br	inconclusive: 12.6 µM [inhibitor, partial curve, poor fit]	–
CCC1(c2ccc(F)cc2)NC(=O)N(CC(=O)N2c3ccccc3NC(=O)C2(C)C)C1=O (stereo not drawn)	inconclusive: 22.4 µM [inhibitor, single point]	–
COc1cc(/C=N/NC(N)=O)c(Br)cc1OCC(=O)Nc1ccccc1C	inconclusive: 12.6 µM [inhibitor, partial curve, poor fit]	–
CC(C)(C)c1ccccc1NC(=O)NC1CCN(Cc2c(F)cccc2Cl)CC1	–	inactive: -18.5%
CC1Sc2ccc(S(=O)(=O)NCCc3ccc(S(N)(=O)=O)cc3)cc2NC1=O (stereo not drawn)	–	inactive: 7.14% [at 46.1 µM]
COc1ccc(C(=O)NNC(=S)NC(=O)C(C)(C)C)cc1	inconclusive: 14.1 µM [inhibitor, partial curve]	–
Cc1c(C(=O)O)[nH]c2ccc([N+](=O)[O-])cc12	–	inactive: -14.7%
CSC1=C(C#N)C(c2ccc(Cl)cc2)C2=C(CC(C)(C)CC2=O)N1 (stereo not drawn)	inconclusive: 35.5 µM [inhibitor, single point]	–
O=C(Nc1ccccc1Cl)c1cccs1	–	inactive: 4.69%
O=C(CN1C(=O)CC(c2ccccc2)=Nc2ccccc21)NCc1ccccc1	inconclusive: 5.01 µM [inhibitor, partial curve, poor fit]	–
Cc1ccccc1C(=O)Nc1ccc2c(c1)OCO2	inconclusive: 14.1 µM [inhibitor, single point]	–
CCN(CC)S(=O)(=O)c1cccc(C(=O)N/N=C/c2ccc(O)c(O)c2O)c1	–	inactive: 5.65%
CN1CCN(c2nc3c(S(=O)(=O)c4ccc(Br)cc4)nnn3c3ccsc23)CC1	–	inactive: -8.32% [at 46.1 µM]
CC(=O)Nc1sc2c(c1C(c1ccc(Cl)cc1)N1CCOCC1)CCCC2 (stereo not drawn)	inconclusive: 25.1 µM [inhibitor, single point]	–
O=C(Cn1cncn1)NCCCc1ccccc1	inconclusive: 35.5 µM [activator, single point]	–
O=C(CSc1ccccc1F)NCCCN1CCCC1=O	inconclusive: 35.5 µM [activator, single point]	–
O=C(Cn1cc(SCc2ccc(C(F)(F)F)cc2)c2ccccc21)N1CCCC1	inconclusive: 35.5 µM [inhibitor, single point]	–

SMILES	Potency	activity change, negative = inhibition
CCCOc1ccc(-c2nonc2NC(=O)c2oc3ccc(C)cc3c2C)cc1OCCC	–	inactive: 14.8% [at 46.1 µM]
O=C(O)c1ccc(SCc2ccccc2)nc1	–	inactive: -17.8%
O=C(CSc1nc(Nc2ccccc2)nc(N2CCOCC2)n1)N1CCCC1	inconclusive: 35.5 µM [inhibitor, single point]	–
CCOc1ccc(NC(=O)c2nnn(CC(=O)Nc3ccccc3OC)c2N)cc1	–	inactive: 2.05%
O=c1[nH][nH]cc1C=Nc1ccccc1O	inconclusive: 7.3 µM [inhibitor, partial curve, poor fit]	–
CCOC(=O)Nc1ccc2c(COC(=O)CNS(=O)(=O)c3cccc(Br)c3)cc(=O)oc2c1	inconclusive: 14.1 µM [activator, partial curve, poor fit]	–
O=C(COc1ccccc1Cl)NCCCNC(=O)c1ccncc1	inconclusive: 6.31 µM [activator, single point]	–
Cc1ccc(N2C(=O)c3[nH]nc(-c4ccc(Cl)cc4)c3C2c2ccc(F)cc2)cc1 (stereo not drawn)	inconclusive: 14.1 µM [inhibitor, partial curve, poor fit]	–
CCc1ccccc1NC(=O)C1C(c2ccccc2)C1(Cl)Cl (stereo not drawn)	inconclusive: 29.1 µM [inhibitor, single point]	–
CS(=O)(=O)n1nc(OC(=O)c2cccc3ccccc23)cc1N	inconclusive: 0.891 µM [activator, full curve, poor fit]	–
COc1ccc(/C=C2\CCCC3C2=NN(C(=O)c2ccco2)C3c2ccc(OC)c(OC)c2)cc1OC (stereo not drawn)	inconclusive: 14.1 µM [inhibitor, single point]	–
COc1ccc(NC(=O)CCC(=O)c2cccs2)cc1S(=O)(=O)Nc1ccc(Cl)cc1	–	inactive: 6.03%
COc1cccc(C(=O)Nc2ccc(-c3cn4cccnc4n3)cc2)c1OC	inconclusive: 7.08 µM [inhibitor, partial curve]	–
O=S(=O)(Cc1ccc(Cl)cc1)N1CCN(Cc2ccccc2)CC1	–	inactive: 9.1%
COc1cccc(NC(=O)CN(C)C(=O)CCC(=O)c2cc(C)sc2C)c1	inconclusive: 11.2 µM [inhibitor, partial curve, poor fit]	–
O=C(CN1CCN(Cc2ccccc2)CC1)N/N=C/c1c[nH]c2ccccc12	inconclusive: 35.5 µM [inhibitor, single point]	–
C#CCn1c(S(=O)(=O)Cc2ccc(F)cc2)nc(-c2ccccc2)c1-c1ccccc1	active: 3.66 µM	–
CCOc1ccc(NC(=O)Cn2ccn(-c3ccc(F)c(F)c3)c(=O)c2=O)cc1	inconclusive: 7.08 µM [inhibitor, full curve, poor fit]	–
O=C(NCc1cccnc1)c1ccc(-c2cc(Cl)ccc2Cl)o1	inconclusive: 23.1 µM [inhibitor, partial curve, poor fit]	–
Cc1c(Cl)cccc1NC(=O)CSc1ncccc1C(=O)Oc1ccccc1Cl	inconclusive: 10 µM [activator, partial curve, poor fit]	–
COC(=O)CCc1c(C)[nH]c(C(=O)OCc2ccccc2)c1C	active: 7.08 µM	–
COP(=O)(OC)C(Nc1ccc([N+](=O)[O-])cc1)c1ccccc1 (stereo not drawn)	inconclusive: 6.31 µM [inhibitor, single point]	–

Reprinted at random: 6 entries already listed.
SMILES	Potency	activity change, negative = inhibition
CCOc1ccc(NC(=O)Cn2ccn(-c3ccc(F)c(F)c3)c(=O)c2=O)cc1	inconclusive: 7.08 µM [inhibitor, full curve, poor fit]	–
Cc1ccc(N2C(=O)c3[nH]nc(-c4ccc(Cl)cc4)c3C2c2ccc(F)cc2)cc1 (stereo not drawn)	inconclusive: 14.1 µM [inhibitor, partial curve, poor fit]	–
O=S(=O)(Cc1ccc(Cl)cc1)N1CCN(Cc2ccccc2)CC1	–	inactive: 9.1%
O=C(COc1ccccc1Cl)NCCCNC(=O)c1ccncc1	inconclusive: 6.31 µM [activator, single point]	–
Cc1c(Cl)cccc1NC(=O)CSc1ncccc1C(=O)Oc1ccccc1Cl	inconclusive: 10 µM [activator, partial curve, poor fit]	–
CCCOc1ccc(-c2nonc2NC(=O)c2oc3ccc(C)cc3c2C)cc1OCCC	–	inactive: 14.8% [at 46.1 µM]
